# The other results are listed elsewhere or left out.
# B1: Gs78B-bfa-542-29-542 (Bacteroides fragilis) (protein)
# chain: SEDINRNPLLPTKEDEKMDGVIYGAYLPNLEKSVIPIGTASESTEPVNRYQIGVNLAGDAWAGYMSPRDNKFNGSKNFTNYFMYENWVNYVYSFMVTDVYSPWMQIKRISQDEGTRNDEIYALAQIIKIAALHRTTDMFGPIPYSQVGKGSFKVAYDSQESVYRSFLKELEEAVQTLDDYSNKSKEVLPAFDIVYNGDVNKWMRFANSLMLRLAIRVRFADAGLAKEYAEKAVKHPAGLINSKELAAQMGKGAGLQMKNPLKVINEEYNDTRMGATIYSYLAGYNDARAAVYFVKNNGFKAVRCGIAKSGDAYNGFTRPNVHEDDPLYWMKASEVCFLKAEGALAGFDMGGSAGDFYNAGIRMSFSENGLDNSSAETYLKDSTRKPANYTDTSNGELSANAPSSITIRWENGATEEEKLERIITQKYLAIFPNGQEAWTEWRRTGYPRQIVVAENKTNSAVLIGNGYDLGGVRRLPYPRTEYEQNGENLHNAISQYLGGVDNAATKVWWDKKSK
# Assays:
# Assay in all cases: glycan array binding signal (z-score within array); higher = stronger binding
# Conditions in all cases: glycan notation: IUPAC condensed, linker removed
# [1] = target: Fuc(a1-2)Gal(b1-4)GlcNAc(b1-3)Gal(b1-4)GlcNAc(b1-3)Gal(b1-4)GlcNAc
# Method in brief: (§1)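 Glycan array data were curated from 3228 arrays in the Consortium for Functional Glycomics database and kept only where the protein sequence was available. Glycan names were converted to IUPAC-condensed notation, and columns mapping to the same glycan were averaged. The binding signal is a within-array Z-score, averaged across arrays of the same protein sequence at different concentrations or buffers and across linkers. Negative Z-scores can be read as non-binding.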
# [2] = target: Fuc(a1-2)Gal(b1-4)GlcNAc(b1-3)GalNAc
# Method in brief: as §1
# [3] = target: Fuc(a1-2)Gal(b1-4)GlcNAc(b1-3)[Fuc(a1-2)Gal(b1-4)GlcNAc(b1-6)]GalNAc
# Method in brief: as §1
# [4] = target: Fuc(a1-2)Gal(b1-4)GlcNAc(b1-3)[Fuc(a1-3)[Gal(b1-4)]GlcNAc(b1-6)]Gal(b1-4)Glc
# Method in brief: as §1
# [5] = target: Fuc(a1-2)Gal(b1-4)GlcNAc(b1-6)GalNAc
# Method in brief: as §1
# [6] = target: Fuc(a1-2)Gal(b1-4)GlcNAc6S
# Method in brief: as §1
# [7] = target: Fuc(a1-2)Gal(b1-4)[Fuc(a1-3)]GlcNAc
# Method in brief: as §1
# [8] = target: Fuc(a1-2)Gal(b1-4)[Fuc(a1-3)]GlcNAc(b1-2)Man(a1-3)[Fuc(a1-2)Gal(b1-4)[Fuc(a1-3)]GlcNAc(b1-2)Man(a1-6)]Man(b1-4)GlcNAc(b1-4)[Fuc(a1-6)]GlcNAc
# Method in brief: as §1
# [9] = target: Fuc(a1-2)Gal(b1-4)[Fuc(a1-3)]GlcNAc(b1-2)[Fuc(a1-2)Gal(b1-4)[Fuc(a1-3)]GlcNAc(b1-4)]Man(a1-3)[Fuc(a1-2)Gal(b1-4)[Fuc(a1-3)]GlcNAc(b1-2)Man(a1-6)]Man(b1-4)GlcNAc(b1-4)GlcNAc
# Method in brief: as §1
# [10] = target: Fuc(a1-2)Gal(b1-4)[Fuc(a1-3)]GlcNAc(b1-3)Gal(b1-4)[Fuc(a1-3)]GlcNAc
# Method in brief: as §1
# [11] = target: Fuc(a1-2)Gal(b1-4)[Fuc(a1-3)]GlcNAc(b1-3)Gal(b1-4)[Fuc(a1-3)]GlcNAc(b1-3)Gal(b1-4)[Fuc(a1-3)]GlcNAc
# Method in brief: as §1
# [12] = target: Fuc(a1-2)Gal(b1-4)[Fuc(a1-3)]GlcNAc(b1-3)GalNAc
# Method in brief: as §1
# [13] = target: Fuc(a1-2)Gal(b1-4)[Fuc(a1-3)]GlcNAc(b1-3)[Neu5Ac(a2-6)Gal(b1-4)GlcNAc(b1-6)]Gal(b1-4)Glc
# Method in brief: as §1
# [14] = target: Fuc(a1-2)Gal3S(b1-4)GlcNAc
# Method in brief: as §1
# [15] = target: Fuc(a1-2)Gal6S(b1-3)GlcNAc
# Method in brief: as §1
# [16] = target: Fuc(a1-2)Gal6S(b1-3)GlcNAc6S
# Method in brief: as §1
# [17] = target: Fuc(a1-2)Gal6S(b1-4)Glc
# Method in brief: as §1
# [18] = target: Fuc(a1-2)Gal6S(b1-4)Glc6S
# Method in brief: as §1
# [19] = target: Fuc(a1-2)[Gal(a1-3)]Gal
# Method in brief: as §1
# [20] = target: Fuc(a1-2)[Gal(a1-3)]Gal(b1-3)GalNAc
# Method in brief: as §1
# [21] = target: Fuc(a1-2)[Gal(a1-3)]Gal(b1-3)GalNAc(b1-3)Gal(a1-4)Gal(b1-4)Glc
# Method in brief: as §1
# [22] = target: Fuc(a1-2)[Gal(a1-3)]Gal(b1-3)GlcNAc
# Method in brief: as §1
# [23] = target: Fuc(a1-2)[Gal(a1-3)]Gal(b1-3)GlcNAc(b1-2)Man(a1-3)[Fuc(a1-2)[Gal(a1-3)]Gal(b1-3)GlcNAc(b1-2)Man(a1-6)]Man(b1-4)GlcNAc(b1-4)GlcNAc
# Method in brief: as §1
# [24] = target: Fuc(a1-2)[Gal(a1-3)]Gal(b1-3)GlcNAc(b1-2)Man(a1-3)[Fuc(a1-2)[Gal(a1-3)]Gal(b1-3)GlcNAc(b1-2)Man(a1-6)]Man(b1-4)GlcNAc(b1-4)[Fuc(a1-6)]GlcNAc
# Method in brief: as §1
# [25] = target: Fuc(a1-2)[Gal(a1-3)]Gal(b1-3)GlcNAc(b1-3)GalNAc
# Method in brief: as §1
# [26] = target: Fuc(a1-2)[Gal(a1-3)]Gal(b1-3)GlcNAc(b1-6)GalNAc
# Method in brief: as §1
# [27] = target: Fuc(a1-2)[Gal(a1-3)]Gal(b1-4)Glc
# Method in brief: as §1
# [28] = target: Fuc(a1-2)[Gal(a1-3)]Gal(b1-4)GlcNAc
# Method in brief: as §1
# [29] = target: Fuc(a1-2)[Gal(a1-3)]Gal(b1-4)GlcNAc(b1-2)Man
# Method in brief: as §1
# [30] = target: Fuc(a1-2)[Gal(a1-3)]Gal(b1-4)GlcNAc(b1-2)Man(a1-3)[Fuc(a1-2)[Gal(a1-3)]Gal(b1-4)GlcNAc(b1-2)Man(a1-6)]Man(b1-4)GlcNAc(b1-4)GlcNAc
# Method in brief: as §1
binder,measurement,setting,value
B1,glycan array binding signal (z-score),[1],-0.829
same,glycan array binding signal (z-score),[2],0.729
same,glycan array binding signal (z-score),[3],0.585
same,glycan array binding signal (z-score),[4],-0.817
same,glycan array binding signal (z-score),[5],1.29
same,glycan array binding signal (z-score),[6],-0.827
same,glycan array binding signal (z-score),[7],-0.758
same,glycan array binding signal (z-score),[8],-0.529
same,glycan array binding signal (z-score),[9],1.07
same,glycan array binding signal (z-score),[10],-0.816
same,glycan array binding signal (z-score),[11],-0.732
same,glycan array binding signal (z-score),[12],1.23
same,glycan array binding signal (z-score),[13],-0.619
same,glycan array binding signal (z-score),[14],-0.608
same,glycan array binding signal (z-score),[15],-0.827
same,glycan array binding signal (z-score),[16],-0.759
same,glycan array binding signal (z-score),[17],2.11
same,glycan array binding signal (z-score),[18],-0.77
same,glycan array binding signal (z-score),[19],-0.238
same,glycan array binding signal (z-score),[20],-0.668
same,glycan array binding signal (z-score),[21],-0.824
same,glycan array binding signal (z-score),[22],-0.842
same,glycan array binding signal (z-score),[23],0.252
same,glycan array binding signal (z-score),[24],-0.049
same,glycan array binding signal (z-score),[25],-0.767
same,glycan array binding signal (z-score),[26],2.8
same,glycan array binding signal (z-score),[27],-0.72
same,glycan array binding signal (z-score),[28],-0.832
same,glycan array binding signal (z-score),[29],0.376
same,glycan array binding signal (z-score),[30],1.22

# 2 entries from above, set out differently.
binder	measurement	setting	value
B1	glycan array binding signal (z-score)	[4]	-0.817
same	glycan array binding signal (z-score)	[6]	-0.827

# From the supplement of paper PMC8728848
